Measurements as given in the supplement of paper PMC10849652.
The list shows a part of the results.

The chains behind the UniProt entries cited, without tags or fusion partners. Where a name states a change or a piece, a line headed by the entry shows the natural chain unless it says otherwise.
UniProt Q96KR1: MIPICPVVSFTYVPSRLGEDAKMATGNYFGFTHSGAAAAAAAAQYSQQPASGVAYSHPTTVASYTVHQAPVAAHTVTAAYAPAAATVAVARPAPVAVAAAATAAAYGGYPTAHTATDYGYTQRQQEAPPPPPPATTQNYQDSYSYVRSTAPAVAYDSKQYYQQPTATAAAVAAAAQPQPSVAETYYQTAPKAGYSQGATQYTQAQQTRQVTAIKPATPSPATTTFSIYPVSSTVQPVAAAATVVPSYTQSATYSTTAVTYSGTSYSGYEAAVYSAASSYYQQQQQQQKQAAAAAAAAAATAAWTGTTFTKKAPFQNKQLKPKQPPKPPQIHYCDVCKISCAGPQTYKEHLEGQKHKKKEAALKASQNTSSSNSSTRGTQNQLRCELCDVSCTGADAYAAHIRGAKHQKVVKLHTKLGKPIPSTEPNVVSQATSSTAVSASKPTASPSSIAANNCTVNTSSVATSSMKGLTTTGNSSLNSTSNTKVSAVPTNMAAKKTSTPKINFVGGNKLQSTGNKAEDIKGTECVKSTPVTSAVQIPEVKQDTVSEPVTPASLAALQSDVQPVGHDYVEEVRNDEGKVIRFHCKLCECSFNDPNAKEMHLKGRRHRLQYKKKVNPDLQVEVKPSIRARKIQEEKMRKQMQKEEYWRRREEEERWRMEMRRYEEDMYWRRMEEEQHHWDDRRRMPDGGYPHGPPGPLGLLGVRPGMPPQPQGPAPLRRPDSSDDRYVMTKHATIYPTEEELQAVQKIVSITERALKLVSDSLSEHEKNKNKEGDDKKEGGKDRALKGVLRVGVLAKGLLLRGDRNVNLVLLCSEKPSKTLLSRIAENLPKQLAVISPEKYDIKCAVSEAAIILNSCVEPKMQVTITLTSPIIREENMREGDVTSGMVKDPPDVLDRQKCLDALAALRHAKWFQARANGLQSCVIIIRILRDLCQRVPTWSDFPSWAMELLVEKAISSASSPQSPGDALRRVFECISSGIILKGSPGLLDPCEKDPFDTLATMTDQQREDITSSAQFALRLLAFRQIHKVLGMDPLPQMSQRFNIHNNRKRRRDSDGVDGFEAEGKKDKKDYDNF
UniProt Q86WB0: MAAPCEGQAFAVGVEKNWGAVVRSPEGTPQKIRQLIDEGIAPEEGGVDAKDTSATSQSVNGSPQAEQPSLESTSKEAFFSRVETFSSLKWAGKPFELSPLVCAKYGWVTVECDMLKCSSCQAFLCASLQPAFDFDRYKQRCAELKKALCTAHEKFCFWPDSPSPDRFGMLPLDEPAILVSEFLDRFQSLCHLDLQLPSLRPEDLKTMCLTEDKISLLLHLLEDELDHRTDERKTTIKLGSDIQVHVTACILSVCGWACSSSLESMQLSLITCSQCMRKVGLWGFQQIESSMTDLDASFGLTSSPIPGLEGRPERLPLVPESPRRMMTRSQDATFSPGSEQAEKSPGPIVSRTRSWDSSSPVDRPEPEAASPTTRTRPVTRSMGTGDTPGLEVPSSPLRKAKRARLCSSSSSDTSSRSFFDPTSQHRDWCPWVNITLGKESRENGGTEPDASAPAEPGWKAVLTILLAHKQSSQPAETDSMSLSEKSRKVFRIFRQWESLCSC
UniProt O95405: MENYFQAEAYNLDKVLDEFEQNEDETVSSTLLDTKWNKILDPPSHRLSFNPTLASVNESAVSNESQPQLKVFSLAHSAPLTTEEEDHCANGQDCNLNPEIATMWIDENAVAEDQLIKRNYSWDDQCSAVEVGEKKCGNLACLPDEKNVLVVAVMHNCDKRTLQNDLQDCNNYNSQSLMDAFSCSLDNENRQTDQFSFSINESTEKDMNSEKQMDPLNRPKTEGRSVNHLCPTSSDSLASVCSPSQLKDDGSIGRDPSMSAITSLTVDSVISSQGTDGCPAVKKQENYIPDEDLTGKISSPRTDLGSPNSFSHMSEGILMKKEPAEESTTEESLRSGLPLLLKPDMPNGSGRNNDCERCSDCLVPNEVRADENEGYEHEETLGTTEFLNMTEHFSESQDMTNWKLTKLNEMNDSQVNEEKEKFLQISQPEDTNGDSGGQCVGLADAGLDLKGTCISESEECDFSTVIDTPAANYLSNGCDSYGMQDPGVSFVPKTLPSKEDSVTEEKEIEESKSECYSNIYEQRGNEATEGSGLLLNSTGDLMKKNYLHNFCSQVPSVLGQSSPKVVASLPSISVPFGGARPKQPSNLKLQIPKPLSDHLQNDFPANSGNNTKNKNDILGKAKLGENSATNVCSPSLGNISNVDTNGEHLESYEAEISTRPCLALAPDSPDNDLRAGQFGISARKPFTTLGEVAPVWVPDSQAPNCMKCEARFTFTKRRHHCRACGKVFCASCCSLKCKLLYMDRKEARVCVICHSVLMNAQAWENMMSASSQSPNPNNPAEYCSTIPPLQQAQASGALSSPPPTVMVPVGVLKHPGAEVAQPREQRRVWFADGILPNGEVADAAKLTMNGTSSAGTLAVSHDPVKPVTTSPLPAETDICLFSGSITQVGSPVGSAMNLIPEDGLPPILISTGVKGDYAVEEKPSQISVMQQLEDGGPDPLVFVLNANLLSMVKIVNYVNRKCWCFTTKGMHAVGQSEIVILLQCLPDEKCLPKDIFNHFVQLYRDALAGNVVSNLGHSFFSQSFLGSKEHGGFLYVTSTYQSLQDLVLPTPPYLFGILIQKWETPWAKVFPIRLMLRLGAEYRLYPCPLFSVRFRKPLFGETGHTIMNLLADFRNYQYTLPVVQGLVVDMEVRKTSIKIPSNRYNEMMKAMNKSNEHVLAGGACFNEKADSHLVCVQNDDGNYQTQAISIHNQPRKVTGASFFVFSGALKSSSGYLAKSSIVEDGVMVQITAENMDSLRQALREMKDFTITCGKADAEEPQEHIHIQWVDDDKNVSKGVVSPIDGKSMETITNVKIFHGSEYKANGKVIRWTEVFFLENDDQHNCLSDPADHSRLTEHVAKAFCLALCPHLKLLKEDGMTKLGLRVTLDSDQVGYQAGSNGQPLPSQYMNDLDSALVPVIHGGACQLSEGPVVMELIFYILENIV
UniProt Q5VZL5: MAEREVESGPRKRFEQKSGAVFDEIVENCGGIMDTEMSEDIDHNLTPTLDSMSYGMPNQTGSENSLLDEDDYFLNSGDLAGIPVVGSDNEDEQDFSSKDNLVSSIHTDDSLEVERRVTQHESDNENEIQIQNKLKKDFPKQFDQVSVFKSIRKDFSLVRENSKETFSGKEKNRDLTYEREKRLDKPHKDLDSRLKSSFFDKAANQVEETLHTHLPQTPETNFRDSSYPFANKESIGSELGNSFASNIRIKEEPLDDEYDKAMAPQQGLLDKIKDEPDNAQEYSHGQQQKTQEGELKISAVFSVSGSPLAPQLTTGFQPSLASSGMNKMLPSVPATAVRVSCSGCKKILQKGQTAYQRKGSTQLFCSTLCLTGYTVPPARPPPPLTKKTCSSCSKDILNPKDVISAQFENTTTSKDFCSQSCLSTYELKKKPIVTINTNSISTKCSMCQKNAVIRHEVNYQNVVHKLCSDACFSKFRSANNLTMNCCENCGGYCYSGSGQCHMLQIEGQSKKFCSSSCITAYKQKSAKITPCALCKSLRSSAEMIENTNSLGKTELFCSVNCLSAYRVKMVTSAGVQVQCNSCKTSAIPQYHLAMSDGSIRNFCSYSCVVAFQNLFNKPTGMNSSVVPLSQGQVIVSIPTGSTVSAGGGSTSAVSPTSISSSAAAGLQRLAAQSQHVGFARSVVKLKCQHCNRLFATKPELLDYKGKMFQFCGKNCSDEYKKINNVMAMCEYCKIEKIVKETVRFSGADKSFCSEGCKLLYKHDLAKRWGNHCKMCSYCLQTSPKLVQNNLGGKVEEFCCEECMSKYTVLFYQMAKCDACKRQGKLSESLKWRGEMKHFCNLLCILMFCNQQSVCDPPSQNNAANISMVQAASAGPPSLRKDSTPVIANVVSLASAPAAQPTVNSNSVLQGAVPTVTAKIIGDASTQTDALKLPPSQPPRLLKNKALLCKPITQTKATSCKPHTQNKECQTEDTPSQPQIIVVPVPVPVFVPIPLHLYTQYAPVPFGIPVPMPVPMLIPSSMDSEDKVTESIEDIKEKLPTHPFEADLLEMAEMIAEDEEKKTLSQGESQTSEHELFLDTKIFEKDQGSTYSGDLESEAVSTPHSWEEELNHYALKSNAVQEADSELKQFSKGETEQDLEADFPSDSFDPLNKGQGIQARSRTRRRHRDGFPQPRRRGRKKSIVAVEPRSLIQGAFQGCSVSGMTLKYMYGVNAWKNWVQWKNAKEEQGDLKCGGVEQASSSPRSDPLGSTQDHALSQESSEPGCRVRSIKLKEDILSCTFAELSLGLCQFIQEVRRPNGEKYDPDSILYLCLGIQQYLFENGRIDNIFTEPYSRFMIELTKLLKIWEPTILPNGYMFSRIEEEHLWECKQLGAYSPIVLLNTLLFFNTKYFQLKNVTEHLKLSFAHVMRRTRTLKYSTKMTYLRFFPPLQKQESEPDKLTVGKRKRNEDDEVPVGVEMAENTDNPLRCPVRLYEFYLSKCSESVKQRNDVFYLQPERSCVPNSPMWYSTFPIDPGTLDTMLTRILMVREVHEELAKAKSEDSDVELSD
UniProt Q96GR4: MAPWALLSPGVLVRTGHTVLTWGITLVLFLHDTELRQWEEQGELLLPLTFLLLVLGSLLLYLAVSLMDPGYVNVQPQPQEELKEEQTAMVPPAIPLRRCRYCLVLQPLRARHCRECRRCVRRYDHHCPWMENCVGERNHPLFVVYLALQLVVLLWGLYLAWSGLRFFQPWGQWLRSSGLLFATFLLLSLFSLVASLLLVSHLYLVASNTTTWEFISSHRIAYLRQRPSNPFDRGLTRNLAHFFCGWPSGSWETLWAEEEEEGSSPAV
UniProt O95365: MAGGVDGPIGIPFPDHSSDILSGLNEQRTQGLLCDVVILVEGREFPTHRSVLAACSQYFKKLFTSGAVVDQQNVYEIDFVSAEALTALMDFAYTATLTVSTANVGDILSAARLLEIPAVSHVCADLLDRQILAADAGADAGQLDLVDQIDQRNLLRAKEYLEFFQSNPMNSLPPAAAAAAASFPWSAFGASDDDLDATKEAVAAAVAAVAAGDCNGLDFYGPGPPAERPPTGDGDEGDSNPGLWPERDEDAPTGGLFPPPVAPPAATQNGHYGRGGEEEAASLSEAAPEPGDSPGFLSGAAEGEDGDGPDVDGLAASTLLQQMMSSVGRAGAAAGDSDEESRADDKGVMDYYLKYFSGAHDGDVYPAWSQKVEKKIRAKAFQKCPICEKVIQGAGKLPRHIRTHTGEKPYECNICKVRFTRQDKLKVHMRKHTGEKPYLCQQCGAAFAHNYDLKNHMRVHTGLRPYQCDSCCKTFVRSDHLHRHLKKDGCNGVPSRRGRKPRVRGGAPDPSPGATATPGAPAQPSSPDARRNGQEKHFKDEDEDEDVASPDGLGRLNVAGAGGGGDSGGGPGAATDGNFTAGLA
UniProt P18887, whole entry, looked up: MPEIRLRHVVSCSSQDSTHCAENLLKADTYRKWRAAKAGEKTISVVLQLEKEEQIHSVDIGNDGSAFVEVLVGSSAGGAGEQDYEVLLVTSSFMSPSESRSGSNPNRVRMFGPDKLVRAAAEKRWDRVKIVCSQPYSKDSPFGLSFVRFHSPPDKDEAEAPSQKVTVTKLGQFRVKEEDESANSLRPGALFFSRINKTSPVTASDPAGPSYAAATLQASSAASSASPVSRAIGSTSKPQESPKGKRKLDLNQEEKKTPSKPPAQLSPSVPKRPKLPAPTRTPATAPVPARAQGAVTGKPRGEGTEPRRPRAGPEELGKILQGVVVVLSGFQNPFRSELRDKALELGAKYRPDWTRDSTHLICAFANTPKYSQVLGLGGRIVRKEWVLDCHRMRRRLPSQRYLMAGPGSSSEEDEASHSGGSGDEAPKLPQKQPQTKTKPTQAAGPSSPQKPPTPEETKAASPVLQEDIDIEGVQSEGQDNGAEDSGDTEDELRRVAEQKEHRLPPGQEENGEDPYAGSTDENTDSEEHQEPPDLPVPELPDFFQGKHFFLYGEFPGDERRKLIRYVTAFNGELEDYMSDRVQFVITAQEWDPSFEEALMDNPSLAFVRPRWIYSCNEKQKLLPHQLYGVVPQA

How the values were obtained:
Test in all cases: log2 fold change, soluble protein after heating vs DMSO (PISA); higher = thermal stabilisation; K562 cells, 10 uM, 30 min; active = over 0.2 and 3.5 SD of the protein, either way, in both replicates (recomputed)
[1] = compound: COC1=CC=C(C=C1)CN2C=CC3=C2C=C(C=C3)C(=O)NO
Procedure, shortened: (§1)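 Values are thermal stability changes relative to control samples and are taken from duplicates. They are stated as log2 fold changes. Before quantification by TMTpro 16plex LC-MS/MS with equalised channel sums, K562 cells at 2×10^6 cells/mL were treated with 10 μM compound for 30 min, heated in aliquots for 3 min across 48°C-58°C, pooled, extracted in PBS with 0.5% NP-40 at 4°C, and centrifuged at 21,000xg for 90 min to give the soluble supernatant.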

[2] = compound: CON(C)C(=O)N1N=C(c2cc(F)ccc2F)S[C@@]1(CCCN)c1ccccc1 [filanesib]
Procedure, shortened: as §1

[3] = compound: CO[C@H]1C[C@@H]2CC[C@@H](C)[C@@](O)(O2)C(=O)C(=O)N2CCCC[C@H]2C(=O)O[C@H]([C@H](C)C[C@@H]2CC[C@H](n3cnnn3)[C@H](OC)C2)CC(=O)[C@H](C)/C=C(\C)[C@@H](O)[C@@H](OC)C(=O)[C@H](C)C[C@H](C)/C=C/C=C/C=C/1C [zotarolimus]
Procedure, shortened: as §1

[4] = compound: COc1cc(Nc2ncc3c(n2)-c2ccc(Cl)cc2C(c2c(F)cccc2OC)=NC3)ccc1C(=O)O [alisertib]
Procedure, shortened: as §1

[5] = compound: COc1cc2ncnc(Nc3ccc(F)c(Cl)c3)c2cc1OCCCN1CCOCC1 [gefitinib]
Procedure, shortened: as §1

[6] = compound: COc1cccc2cc(-c3nc([C@H]4CC[C@H](C(=O)O)CC4)n4ncnc(N)c34)[nH]c12
Procedure, shortened: as §1

[7] = compound: CS(=O)(=O)N1CCN(Cc2cc3nc(-c4cccc5[nH]ncc45)nc(N4CCOCC4)c3s2)CC1 [pictilisib]
Procedure, shortened: as §1

[8] = compound: CS(=O)(=O)c1ccc(-c2cnc(N)c(C(=O)Nc3ccccc3)n2)cc1
Procedure, shortened: as §1

[9] = compound: C[C@@H](Oc1cc(-c2cnn(C3CCNCC3)c2)cnc1N)c1c(Cl)ccc(F)c1Cl [crizotinib]
Procedure, shortened: as §1

[10] = compound: C[C@@H]1COCCN1C2=NC(=NC(=C2)C3(CC3)S(=O)(=O)C)C4=C5C=CNC5=CC=C4
Procedure, shortened: as §1

[11] = compound: C[C@H](C1=CC=C(C=C1)C(=O)NC2=C3C=CNC3=NC=C2)N
Procedure, shortened: as §1

[12] = compound: C[C@H](Nc1ncnc2nc[nH]c12)c1cc2cccc(Cl)c2c(=O)n1-c1ccccc1 [duvelisib]
Procedure, shortened: as §1

[13] = compound: Cc1cc(Nc2cc(CN3CCOCC3)c3nc(C)c(Cc4ccc(Cl)cc4F)n3n2)n[nH]1 [gandotinib]
Procedure, shortened: as §1

[14] = compound: Cc1cc(Nc2cc(N3CCN(C)CC3)nc(Sc3ccc(NC(=O)C4CC4)cc3)n2)n[nH]1 [tozasertib]
Procedure, shortened: as §1

[15] = compound: Cc1cc(SCc2sc(-c3ccc(C(F)(F)F)cc3)nc2C)ccc1OCC(=O)O
Procedure, shortened: as §1

[16] = compound: Cc1ccc(-n2nc(C(C)(C)C)cc2NC(=O)Nc2ccc(OCCN3CCOCC3)c3ccccc23)cc1 [doramapimod]
Procedure, shortened: as §1

[17] = compound: Cc1ccc(C(=O)N(CCCN)[C@@H](c2nc3cc(Cl)ccc3c(=O)n2Cc2ccccc2)C(C)C)cc1 [ispinesib]
Procedure, shortened: as §1

[18] = compound: COc1cc(C(=O)O)ccc1NC(=O)[C@@H]1N[C@@H](CC(C)(C)C)[C@](C#N)(c2ccc(Cl)cc2F)[C@H]1c1cccc(Cl)c1F [idasanutlin]
Procedure, shortened: as §1

[19] = compound: COc1cc2nc(-c3cc(F)ccc3O)nc(N[C@@H]3CNC[C@H]3C(C)(C)O)c2cc1OC
Procedure, shortened: as §1

[20] = compound: CS(=O)(=O)CCNCc1ccc(-c2ccc3ncnc(Nc4ccc(OCc5cccc(F)c5)c(Cl)c4)c3c2)o1 [lapatinib]
Procedure, shortened: as §1

Measured: log2 fold change

ZFR (UniProt Q96KR1)
inactive: [1] 0.071 | [2] 0.307 | [3] -0.09 | [4] -0.038 | [5] -0.026 | [6] -0.03 | [7] 0.02 | [8] -0.205 | [9] -0.097 | [10] -0.373 | [11] 0.372 | [12] -0.072 | [13] -0.106 | [14] -0.023 | [15] 0 | [16] 0.07 | [17] 0.043

ZC3HC1 (UniProt Q86WB0)
inactive: [1] 0.13 | [2] -0.042 | [3] 0.052 | [18] -0.012 | [4] 0.024 | [19] 0.013 | [5] 0.004 | [6] 0.032 | [20] 0 | [7] -0.003 | [8] 0.066 | [9] -0.109 | [10] 0.119 | [11] -0.213 | [13] -0.157 | [15] 0.199 | [16] -0.056 | [17] -0.027

ZFYVE9 (UniProt O95405)
inactive: [1] 0.054 | [2] -0.205 | [3] 0.061 | [4] -0.018 | [19] -0.139 | [5] 0.06 | [6] -0.01 | [20] 0.005 | [8] 0.017 | [9] -0.149 | [10] 0.002 | [11] -0.032 | [12] -0.134 | [14] 0.095 | [15] 0.082 | [16] -0.063 | [17] -0.087

ZMYM4 (UniProt Q5VZL5)
inactive: [1] 0.292 | [2] -0.14 | [3] 0.025 | [4] -0.03 | [5] -0.063 | [6] 0.051 | [7] -0.223 | [8] -0.315 | [9] -0.019 | [10] -0.013 | [11] 0.277 | [13] 0.083 | [14] -0.196 | [16] 0.197 | [17] 0.049

ZDHHC12 isoform 3 (UniProt Q96GR4)
inactive: [1] -0.018 | [18] -0.078 | [19] 0.021 | [20] -0.133 | [9] 0.148 | [12] 0.157 | [14] -0.154 | [15] -0.1 | [16] -0.148

ZC3H7B (UniProt Q9UGR2)
inactive: [1] -0.119 | [2] 0.727 | [3] 0.087 | [4] -0.273 | [6] -0.302 | [7] -0.163 | [8] -0.061 | [9] -0.188 | [11] 0.559 | [12] -0.366 | [13] -0.024 | [14] 0.388 | [15] -0.208 | [16] 0.026 | [17] -0.276

ZBTB7A (UniProt O95365)
inactive: [1] 0.062 | [2] 0.164 | [3] 0.178 | [18] -0.111 | [19] -0.066 | [5] 0.006 | [20] 0.121 | [8] -0.091 | [9] -0.046 | [10] 0.515 | [11] -0.092 | [12] 0.018 | [14] 0.54 | [15] -0.127 | [16] 0.221 | [17] 0.033

XRCC1 (UniProt P18887)
inactive: [1] -0.129 | [2] 0.088 | [3] -0.018 | [18] -0.045 | [7] -0.065 | [8] 0 | [9] 0.093 | [10] 0.087 | [11] 0.049 | [13] -0.019 | [15] -0.132 | [16] -0.101 | [17] 0.062
